Consider 40 targets from the supplement of paper PMC10849652.

Protein sequences, listed by entry. Tags and fused reporters are not part of them. Lines headed by an entry give the natural chain unless they say otherwise; changes in a name come on top.
UniProt Q13686: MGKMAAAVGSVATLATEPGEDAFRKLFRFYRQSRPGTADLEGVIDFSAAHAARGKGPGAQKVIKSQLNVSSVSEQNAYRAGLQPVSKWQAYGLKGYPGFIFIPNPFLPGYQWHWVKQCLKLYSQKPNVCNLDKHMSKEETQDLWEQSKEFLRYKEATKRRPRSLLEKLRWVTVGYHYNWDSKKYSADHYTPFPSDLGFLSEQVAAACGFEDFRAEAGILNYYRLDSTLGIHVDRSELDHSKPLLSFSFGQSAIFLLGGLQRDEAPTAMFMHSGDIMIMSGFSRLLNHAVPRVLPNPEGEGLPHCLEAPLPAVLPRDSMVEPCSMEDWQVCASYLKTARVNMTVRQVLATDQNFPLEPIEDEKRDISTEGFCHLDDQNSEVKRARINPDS
UniProt Q9Y4X0: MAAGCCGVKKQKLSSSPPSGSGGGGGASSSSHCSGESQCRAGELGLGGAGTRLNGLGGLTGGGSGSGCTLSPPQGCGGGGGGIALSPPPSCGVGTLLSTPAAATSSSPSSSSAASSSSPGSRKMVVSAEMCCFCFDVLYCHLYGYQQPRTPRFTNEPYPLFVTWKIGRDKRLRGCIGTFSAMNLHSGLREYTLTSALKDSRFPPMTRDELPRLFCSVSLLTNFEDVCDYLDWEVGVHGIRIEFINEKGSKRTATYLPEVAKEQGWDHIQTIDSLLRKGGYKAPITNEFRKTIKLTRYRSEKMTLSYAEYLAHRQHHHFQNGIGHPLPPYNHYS
UniProt Q5VTE6: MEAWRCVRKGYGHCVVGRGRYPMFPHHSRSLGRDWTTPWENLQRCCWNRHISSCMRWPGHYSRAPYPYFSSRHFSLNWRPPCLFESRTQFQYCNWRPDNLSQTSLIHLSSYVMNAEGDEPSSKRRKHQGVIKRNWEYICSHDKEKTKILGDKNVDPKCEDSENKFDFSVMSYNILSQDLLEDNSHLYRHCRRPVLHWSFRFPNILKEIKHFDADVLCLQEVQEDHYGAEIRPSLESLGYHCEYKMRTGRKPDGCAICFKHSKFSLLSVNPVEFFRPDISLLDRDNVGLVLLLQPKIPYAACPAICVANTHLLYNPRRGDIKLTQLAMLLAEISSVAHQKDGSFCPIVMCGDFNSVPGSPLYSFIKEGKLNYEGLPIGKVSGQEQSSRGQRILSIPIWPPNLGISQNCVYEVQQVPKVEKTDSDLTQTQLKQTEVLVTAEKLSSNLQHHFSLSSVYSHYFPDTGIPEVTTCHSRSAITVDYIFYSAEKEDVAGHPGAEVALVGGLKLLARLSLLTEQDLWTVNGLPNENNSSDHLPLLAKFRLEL
UniProt Q9H8Y5: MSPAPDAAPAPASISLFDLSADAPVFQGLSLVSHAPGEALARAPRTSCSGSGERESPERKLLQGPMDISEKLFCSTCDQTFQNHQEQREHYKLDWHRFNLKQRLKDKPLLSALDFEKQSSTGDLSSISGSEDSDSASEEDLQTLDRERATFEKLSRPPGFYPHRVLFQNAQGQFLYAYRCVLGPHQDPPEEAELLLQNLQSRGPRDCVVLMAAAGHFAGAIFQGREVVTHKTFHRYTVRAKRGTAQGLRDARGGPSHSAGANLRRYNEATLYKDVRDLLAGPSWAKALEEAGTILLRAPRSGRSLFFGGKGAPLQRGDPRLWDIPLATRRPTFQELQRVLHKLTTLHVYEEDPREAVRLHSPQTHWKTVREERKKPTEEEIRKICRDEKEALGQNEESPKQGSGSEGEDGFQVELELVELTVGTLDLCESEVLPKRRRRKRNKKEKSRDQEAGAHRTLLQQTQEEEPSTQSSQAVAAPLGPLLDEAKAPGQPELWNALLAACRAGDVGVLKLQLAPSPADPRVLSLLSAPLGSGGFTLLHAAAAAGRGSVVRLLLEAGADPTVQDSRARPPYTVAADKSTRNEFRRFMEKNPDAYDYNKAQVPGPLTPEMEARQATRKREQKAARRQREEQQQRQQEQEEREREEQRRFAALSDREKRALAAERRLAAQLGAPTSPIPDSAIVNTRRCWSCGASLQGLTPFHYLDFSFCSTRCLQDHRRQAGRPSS
UniProt P05091: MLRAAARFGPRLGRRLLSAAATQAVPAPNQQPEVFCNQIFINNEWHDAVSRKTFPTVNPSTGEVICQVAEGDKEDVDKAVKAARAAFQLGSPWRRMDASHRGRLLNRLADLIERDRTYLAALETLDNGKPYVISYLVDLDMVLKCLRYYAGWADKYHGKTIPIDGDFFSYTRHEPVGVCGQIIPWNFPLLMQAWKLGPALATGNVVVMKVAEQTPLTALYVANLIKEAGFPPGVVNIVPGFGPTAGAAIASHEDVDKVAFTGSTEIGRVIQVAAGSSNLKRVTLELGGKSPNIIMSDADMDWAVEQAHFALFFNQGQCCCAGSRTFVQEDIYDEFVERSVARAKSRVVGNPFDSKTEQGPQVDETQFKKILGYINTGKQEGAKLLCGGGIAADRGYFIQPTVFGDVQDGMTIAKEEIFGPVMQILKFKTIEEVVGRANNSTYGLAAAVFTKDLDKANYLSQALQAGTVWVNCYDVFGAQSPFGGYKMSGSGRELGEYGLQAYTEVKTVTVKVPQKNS
UniProt Q9NXW9: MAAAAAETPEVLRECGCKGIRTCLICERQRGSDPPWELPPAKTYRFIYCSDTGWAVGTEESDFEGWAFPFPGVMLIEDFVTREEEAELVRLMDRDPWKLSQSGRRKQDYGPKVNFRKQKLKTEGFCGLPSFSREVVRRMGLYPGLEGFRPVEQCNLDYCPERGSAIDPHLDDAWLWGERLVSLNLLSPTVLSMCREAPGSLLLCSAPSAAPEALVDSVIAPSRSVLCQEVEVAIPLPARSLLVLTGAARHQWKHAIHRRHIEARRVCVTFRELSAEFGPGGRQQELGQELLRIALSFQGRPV
UniProt O43747: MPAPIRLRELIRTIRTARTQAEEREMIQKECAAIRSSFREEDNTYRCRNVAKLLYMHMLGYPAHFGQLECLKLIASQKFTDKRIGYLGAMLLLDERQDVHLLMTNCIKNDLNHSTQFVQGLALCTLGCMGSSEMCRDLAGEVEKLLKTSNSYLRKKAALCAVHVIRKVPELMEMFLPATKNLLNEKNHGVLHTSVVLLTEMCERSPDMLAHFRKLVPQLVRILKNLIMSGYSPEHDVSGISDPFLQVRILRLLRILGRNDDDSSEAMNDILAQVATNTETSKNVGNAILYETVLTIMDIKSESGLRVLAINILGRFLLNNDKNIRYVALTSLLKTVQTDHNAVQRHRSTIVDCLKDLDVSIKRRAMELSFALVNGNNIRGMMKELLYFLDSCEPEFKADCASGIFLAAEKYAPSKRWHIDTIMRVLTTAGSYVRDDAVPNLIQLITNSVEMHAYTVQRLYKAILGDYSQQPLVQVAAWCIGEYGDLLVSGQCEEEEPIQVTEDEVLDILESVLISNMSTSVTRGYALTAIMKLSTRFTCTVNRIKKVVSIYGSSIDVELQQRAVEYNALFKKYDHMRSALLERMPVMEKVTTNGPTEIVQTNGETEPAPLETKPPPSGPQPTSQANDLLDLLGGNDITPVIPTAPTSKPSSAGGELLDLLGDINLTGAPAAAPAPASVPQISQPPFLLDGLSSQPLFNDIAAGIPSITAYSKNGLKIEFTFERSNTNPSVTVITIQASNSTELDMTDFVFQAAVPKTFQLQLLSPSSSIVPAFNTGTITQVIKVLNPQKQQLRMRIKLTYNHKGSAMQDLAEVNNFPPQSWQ
UniProt P15144: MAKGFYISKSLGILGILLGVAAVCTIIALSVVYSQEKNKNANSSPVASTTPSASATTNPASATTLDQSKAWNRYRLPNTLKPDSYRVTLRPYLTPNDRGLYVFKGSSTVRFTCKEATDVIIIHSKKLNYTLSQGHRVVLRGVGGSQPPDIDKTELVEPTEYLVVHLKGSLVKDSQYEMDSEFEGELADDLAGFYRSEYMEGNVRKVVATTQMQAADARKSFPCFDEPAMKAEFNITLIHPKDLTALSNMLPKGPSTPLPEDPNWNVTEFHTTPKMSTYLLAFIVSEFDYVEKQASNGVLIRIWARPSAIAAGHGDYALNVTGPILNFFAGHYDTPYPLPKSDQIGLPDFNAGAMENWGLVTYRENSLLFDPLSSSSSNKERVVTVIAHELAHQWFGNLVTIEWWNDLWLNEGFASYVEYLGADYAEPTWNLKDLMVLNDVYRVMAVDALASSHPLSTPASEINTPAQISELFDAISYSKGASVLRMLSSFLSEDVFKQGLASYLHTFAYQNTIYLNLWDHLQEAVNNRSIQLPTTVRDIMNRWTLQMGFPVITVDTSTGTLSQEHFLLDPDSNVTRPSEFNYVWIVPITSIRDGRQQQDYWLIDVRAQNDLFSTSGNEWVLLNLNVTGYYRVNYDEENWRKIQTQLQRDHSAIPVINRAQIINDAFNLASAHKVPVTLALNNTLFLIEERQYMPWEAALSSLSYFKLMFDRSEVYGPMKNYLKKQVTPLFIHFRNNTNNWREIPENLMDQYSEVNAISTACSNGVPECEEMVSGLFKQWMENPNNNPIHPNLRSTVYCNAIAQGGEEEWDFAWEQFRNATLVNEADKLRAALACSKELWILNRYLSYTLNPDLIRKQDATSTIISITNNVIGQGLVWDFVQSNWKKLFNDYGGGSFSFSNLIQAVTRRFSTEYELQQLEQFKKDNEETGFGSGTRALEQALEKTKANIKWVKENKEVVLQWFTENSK
UniProt Q9BT22: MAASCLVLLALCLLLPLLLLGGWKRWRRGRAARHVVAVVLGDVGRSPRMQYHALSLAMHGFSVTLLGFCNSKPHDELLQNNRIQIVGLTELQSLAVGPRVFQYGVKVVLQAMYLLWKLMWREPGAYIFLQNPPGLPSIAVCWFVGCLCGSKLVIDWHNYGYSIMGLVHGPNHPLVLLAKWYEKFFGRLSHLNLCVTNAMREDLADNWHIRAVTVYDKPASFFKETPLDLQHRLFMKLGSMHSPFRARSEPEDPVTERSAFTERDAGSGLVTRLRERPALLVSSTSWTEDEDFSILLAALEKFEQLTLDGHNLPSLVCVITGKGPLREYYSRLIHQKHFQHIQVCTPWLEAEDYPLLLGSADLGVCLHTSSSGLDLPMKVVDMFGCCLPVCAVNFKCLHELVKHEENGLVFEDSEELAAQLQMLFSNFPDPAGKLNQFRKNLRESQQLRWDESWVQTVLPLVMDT
UniProt Q96NW4, whole entry, looked up: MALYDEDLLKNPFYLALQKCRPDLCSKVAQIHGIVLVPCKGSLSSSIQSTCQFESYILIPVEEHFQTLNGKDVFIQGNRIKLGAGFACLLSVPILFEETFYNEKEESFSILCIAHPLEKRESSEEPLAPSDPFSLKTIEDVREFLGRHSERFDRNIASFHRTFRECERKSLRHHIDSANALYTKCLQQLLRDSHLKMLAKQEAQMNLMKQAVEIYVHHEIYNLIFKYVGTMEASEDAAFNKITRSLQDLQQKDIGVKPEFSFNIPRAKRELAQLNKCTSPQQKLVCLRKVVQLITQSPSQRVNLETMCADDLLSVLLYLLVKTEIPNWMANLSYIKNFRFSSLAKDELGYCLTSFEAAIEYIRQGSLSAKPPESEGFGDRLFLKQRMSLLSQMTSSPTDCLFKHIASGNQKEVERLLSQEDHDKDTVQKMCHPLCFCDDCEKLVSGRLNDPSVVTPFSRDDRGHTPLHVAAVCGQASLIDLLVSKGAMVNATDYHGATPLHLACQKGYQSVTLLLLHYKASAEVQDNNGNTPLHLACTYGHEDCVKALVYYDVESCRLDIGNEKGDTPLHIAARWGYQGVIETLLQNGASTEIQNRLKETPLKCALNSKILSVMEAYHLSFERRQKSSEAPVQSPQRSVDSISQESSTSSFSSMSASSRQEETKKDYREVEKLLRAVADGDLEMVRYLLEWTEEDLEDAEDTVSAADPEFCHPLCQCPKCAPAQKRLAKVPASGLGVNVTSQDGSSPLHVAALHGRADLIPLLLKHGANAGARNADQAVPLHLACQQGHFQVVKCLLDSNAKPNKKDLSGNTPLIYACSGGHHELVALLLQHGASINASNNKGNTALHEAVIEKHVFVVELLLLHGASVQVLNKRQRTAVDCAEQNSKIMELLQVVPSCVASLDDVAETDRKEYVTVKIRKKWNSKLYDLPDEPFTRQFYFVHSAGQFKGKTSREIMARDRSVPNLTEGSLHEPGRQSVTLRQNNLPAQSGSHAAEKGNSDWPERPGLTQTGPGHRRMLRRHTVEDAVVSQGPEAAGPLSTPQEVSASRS
UniProt P31751: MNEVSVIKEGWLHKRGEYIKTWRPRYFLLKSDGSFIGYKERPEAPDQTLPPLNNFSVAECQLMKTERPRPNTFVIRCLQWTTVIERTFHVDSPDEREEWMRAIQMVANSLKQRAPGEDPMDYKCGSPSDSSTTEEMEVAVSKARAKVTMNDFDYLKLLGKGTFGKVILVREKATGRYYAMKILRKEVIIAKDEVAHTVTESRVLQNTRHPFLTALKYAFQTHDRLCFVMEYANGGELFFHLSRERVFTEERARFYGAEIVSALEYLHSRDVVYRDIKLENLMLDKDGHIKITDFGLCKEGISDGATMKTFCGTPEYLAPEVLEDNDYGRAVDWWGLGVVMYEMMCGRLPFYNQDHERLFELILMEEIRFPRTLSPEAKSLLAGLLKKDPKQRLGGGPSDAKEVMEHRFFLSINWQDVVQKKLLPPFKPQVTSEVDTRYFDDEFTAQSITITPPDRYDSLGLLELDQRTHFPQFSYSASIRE

Some of the results follow.

Compound in the test: c1cn2cc(-c3ccc4cn[nH]c4c3)nc(Nc3ccc(N4CCOCC4)cc3)c2n1 [entospletinib]
The test is described as follows: log2 fold change, soluble protein after heating vs DMSO (PISA); higher = thermal stabilisation; K562 lysate, 10 uM; active = over 0.2 and 3.5 SD of the protein, either way, in both replicates (recomputed). In a few lines: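 Thermal stability, expressed as log-two fold change relative to solvent controls, is given from duplicates. Crude K562 extract in PBS pH 7.4 with 1 mM MgCl2, at 1 mg/mL protein, was treated with 10 μM compound for 30 min and heated in aliquots for 3 min across 48°C-58°C. After pooling, adjustment to 0.5% NP-40 at 4°C and centrifugation at 21,000xg for 90 min, supernatant protein was measured by TMTpro 16plex LC-MS/MS with channel sums equalised.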
Regarding ALKBH1 (UniProt Q13686), the log2 fold change was inactive: -0.052. To AP3B2 isoform 4 (UniProt Q13367) belongs inactive: 0.036; to ANXA1 (UniProt P04083), inactive: 0.011. To AMMECR1 (UniProt Q9Y4X0) belongs inactive: 0; to ANKRD17 (UniProt O75179), inactive: -0.021.

Turning to ANKRD30B (UniProt Q9BXX2), the log2 fold change is inactive: 0.025. To ANGEL2 (UniProt Q5VTE6) belongs inactive: -0.018. Under ALKBH8 isoform 4 (UniProt Q96BT7) stands inactive: -0.067; under ANKRD49 (UniProt Q8WVL7), inactive: 0.023; under ALG6 (UniProt Q9Y672), inactive: 0.047.

As for AMFR (UniProt Q9UKV5), the log2 fold change is inactive: -0.025. Turning to AP1G2 (UniProt O75843), the log2 fold change is inactive: 0.018. Under ANP32A (UniProt P39687) stands inactive: 0.026; under ALDOC (UniProt P09972), inactive: 0.064; under ANKLE2 (UniProt Q86XL3), inactive: -0.066. To ANK1 isoform 14 (UniProt P16157) belongs inactive: 0.006. For the target ANKZF1 (UniProt Q9H8Y5), the log2 fold change is inactive: -0.013. Consider AP3D1 isoform 5 (UniProt O14617), for which the log2 fold change was inactive: 0.006.

Consider ALDH2 (UniProt P05091), for which the log2 fold change is inactive: -0.009.

Consider AP2A2 isoform 2 (UniProt O94973), for which the log2 fold change is inactive: 0.019.

For ALDH6A1 (UniProt Q02252), the log2 fold change was inactive: 0.035. For ALDOA (UniProt P04075), the log2 fold change is inactive: 0.013. AP3M2 (UniProt P53677): the log2 fold change was inactive: 0.033. Regarding ALKBH6 isoform 2 (UniProt Q3KRA9), the log2 fold change was inactive: 0.031. ALKBH4 (UniProt Q9NXW9): the log2 fold change is inactive: -0.012. Under ALKBH3 (UniProt Q96Q83) stands inactive: -0.04; under AP1G1 isoform 2 (UniProt O43747), inactive: -0.007; under ANPEP (UniProt P15144), inactive: -0.057. Under ANKHD1 isoform 6 (UniProt Q8IWZ3) stands inactive: -0.018; under ALG1 (UniProt Q9BT22), inactive: 0.032; under ANKRD27 (UniProt Q96NW4), inactive: 0.01. For the target AKT2 (UniProt P31751), the log2 fold change is inactive: 0.008. On to ANLN (UniProt Q9NQW6), for which the log2 fold change was inactive: 0. For the target AP4E1 (UniProt Q9UPM8), the log2 fold change is inactive: 0.03.

For the target ALAD (UniProt P13716), the log2 fold change was inactive: 0.004. As to AP2S1 (UniProt P53680), the log2 fold change is inactive: 0.044. On to ANKRD13D isoform 3 (UniProt Q6ZTN6), for which the log2 fold change is inactive: -0.015.

For the target ANXA6 (UniProt P08133), the log2 fold change is inactive: -0.017. For ALDH1B1 (UniProt P30837), the log2 fold change is inactive: 0.033. To ANGPTL4 (UniProt M0R3A2) belongs inactive: -0.12.
